The target in assay [1] is T1, DmMIC60 (endogenous, fly mitochondria) (D. melanogaster (endogenous in flies)) (UniProt P91928).
T1 sequence: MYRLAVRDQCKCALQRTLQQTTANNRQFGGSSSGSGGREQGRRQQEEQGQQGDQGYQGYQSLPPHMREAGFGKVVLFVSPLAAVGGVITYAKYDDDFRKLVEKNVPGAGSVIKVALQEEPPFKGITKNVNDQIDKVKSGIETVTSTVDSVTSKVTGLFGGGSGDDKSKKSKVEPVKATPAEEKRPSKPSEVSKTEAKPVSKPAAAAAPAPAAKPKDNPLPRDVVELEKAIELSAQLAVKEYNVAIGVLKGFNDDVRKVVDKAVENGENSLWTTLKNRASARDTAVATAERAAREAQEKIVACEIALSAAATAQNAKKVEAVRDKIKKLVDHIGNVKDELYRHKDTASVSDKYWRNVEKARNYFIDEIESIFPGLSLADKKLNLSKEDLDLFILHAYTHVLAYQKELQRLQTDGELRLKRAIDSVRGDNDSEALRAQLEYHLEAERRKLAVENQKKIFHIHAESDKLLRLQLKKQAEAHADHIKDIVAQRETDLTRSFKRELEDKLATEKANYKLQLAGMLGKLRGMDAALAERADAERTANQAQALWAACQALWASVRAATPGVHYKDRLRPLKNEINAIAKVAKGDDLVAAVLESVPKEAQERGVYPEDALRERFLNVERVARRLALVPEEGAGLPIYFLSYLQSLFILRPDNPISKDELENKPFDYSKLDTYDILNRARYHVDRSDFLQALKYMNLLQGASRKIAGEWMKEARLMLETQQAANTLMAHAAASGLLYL
As to the kind of experiment: co-IP; mitochondria isolated from WT flies (1 mg), solubilised with 1% digitonin; antisera on protein A-Sepharose, 1 h at 4°C, 10 washes with 0.3% digitonin, eluted with 0.1 M glycine pH 2.8; immunoblot; DmMIC60 and CG41128 used as baits.

Chains of the proteins cited; added tags and fusions are not shown. Lines headed by an entry give the natural chain unless they say otherwise; changes in a name come on top.
UniProt Q8SY69: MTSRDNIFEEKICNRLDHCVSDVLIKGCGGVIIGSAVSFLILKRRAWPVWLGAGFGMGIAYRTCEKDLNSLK

The target in assay [2] is Dmel_CG41128/MINOS1b/DmMIC10b (endogenous, fly mitochondria) (D. melanogaster (endogenous in flies)) (UniProt Q8SY69). The assay is described as above.

These are yes or no findings as the source states them, for the method shown. Binding seen in cells or lysates may run through a third protein. A result given as binding can be weak or reduced; the word gives no strength.

“Dmel_CG41128/MINOS1b/DmMIC10b (endogenous, fly mitochondria) (from UniProt Q8SY69)”: the binding result in assay [1] is reported as “binds”.

B1: DmMIC13 (endogenous, fly mitochondria) (protein, UniProt Q9VVH3 1-122)
chain: MVLGFLVRGGLVAATVYYTQKVGIWGDSDQTDKLYNDIKSELRPHVQKLEKQLPFEVPQLPKTGEMRFLAKHYYNEGVKNTFRFIHMLPCYAGRGLKKVKDTFQDFAQSPAIAGGAESSPPK
Consider B1, for which the binding entry in assay [2] is listed as “binds”.

B2: DmMIC60 (endogenous, fly mitochondria) (protein, UniProt P91928 1-739)
chain: T1 sequence
For B2, the binding result in assay [2] is listed as “binds”.

Values taken from article PMC10803214.
